Record: PubChem BioAssay AID1259405 (NCATS, 2018)
Assay: 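Knock-downs that lift recombinant protein yield in hamster ovary cells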 (primary screen). Cells: Chinese hamster CHO-K1 ovary cells with stable secreted eGFP expression. Reagent: single siRNA against mouse genes, 0.8 pmol siRNA per well (2 µl of 400 nM stock). Time to read-out: 3 days. Measured: 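Percent of the per-plate non-targeting control median for intracellular GFP per well by laser scanning cytometry and for cell viability by ATP luminescence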. Scale: GFP, % of control: higher = more GFP per well, higher productivity; viability (ATP), % of control: higher = more viable cells (more ATP). Rule for the call: 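Called active when intracellular GFP, relative to negative control, is at or above 120%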.
The whole screen tested about 50,000 reagents; below is a random part of them. About 4,000 of all reagents (8%) count as active. 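Mouse siRNA library applied to hamster cells; one well for each siRNA.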 The numbers tell different reagents against one gene apart.

Tex19.1 (GeneID 73679) #1: GFP, % of control = 87.7; viability (ATP), % of control = 83.3; Call = inactive
Tex19.1 (GeneID 73679) #2: GFP, % of control = 135; viability (ATP), % of control = 127; Call = active
Tex19.1 (GeneID 73679) #3: GFP, % of control = 152; viability (ATP), % of control = 150; Call = active
Arpc5l (GeneID 74192) #1: GFP, % of control = 43.6; viability (ATP), % of control = 49.4; Call = inactive
Arpc5l (GeneID 74192) #2: GFP, % of control = 52.5; viability (ATP), % of control = 58.2; Call = inactive
Arpc5l (GeneID 74192) #3: GFP, % of control = 48.9; viability (ATP), % of control = 35.9; Call = inactive

An excerpt from above, showing only “GFP, % of control”:
Arpc5l (GeneID 74192) #1: 43.6
Arpc5l (GeneID 74192) #2: 52.5
Arpc5l (GeneID 74192) #3: 48.9

The list goes on:
Fpr-rs4 (GeneID 14291) #1: GFP, % of control = 99.4; viability (ATP), % of control = 90.5; Call = inactive
Fpr-rs4 (GeneID 14291) #2: GFP, % of control = 45.9; viability (ATP), % of control = 41.9; Call = inactive
Fpr-rs4 (GeneID 14291) #3: GFP, % of control = 77.1; viability (ATP), % of control = 89.9; Call = inactive
Vcl (GeneID 22330) #1: GFP, % of control = 56; viability (ATP), % of control = 90.2; Call = inactive
Vcl (GeneID 22330) #2: GFP, % of control = 105; viability (ATP), % of control = 97.3; Call = inactive
Tex264 (GeneID 21767) #1: GFP, % of control = 65.1; viability (ATP), % of control = 61.7; Call = inactive
Tex264 (GeneID 21767) #2: GFP, % of control = 65.7; viability (ATP), % of control = 78.9; Call = inactive
Tex264 (GeneID 21767) #3: GFP, % of control = 138; viability (ATP), % of control = 143; Call = active
Masp1 (GeneID 17174) #1: GFP, % of control = 58; viability (ATP), % of control = 102; Call = inactive
Masp1 (GeneID 17174) #2: GFP, % of control = 104; viability (ATP), % of control = 60.6; Call = inactive
Masp1 (GeneID 17174) #3: GFP, % of control = 75.8; viability (ATP), % of control = 88.9; Call = inactive
